Assay results taken from paper PMC12670160, “A drug-repurposing screen of FDA- and EMA-approved drugs identifies two NF-κB inhibitors active against eumycetoma” (Journal of Antimicrobial Chemotherapy, 2025).
Hit rate of the full screen: of about 5,300 compounds, about 130 (2.5%) showed an effect of 50% or more. The list shows a part of the results. Square brackets hold non-standard residues; d marks the D form. Side chains are listed from the residue outwards. Peptide text beside a SMILES is read from it. * marks the point of attachment. X1 = CCC(C)C(N)C1=NC(C(=O)*)CS1; Orn = NCCC[CH](N)C(=O)O

System: M. mycetomatis strain mm55
Details: primary screen, metabolic activity vs growth control; 96 h, 2 µM; inhibitor

Compared with OC[C@@H](O)[C@@H](O)[C@H](O)[C@@H](O)CO [ONC0003340, mannitol], OC[C@@H](O)[C@@H](O)CO [ONC0002759, erythritol] is lower in “% viability” value: 113.8% for the first, 109.4% for the second.

First: CNS(=O)(=O)Nc1nccc(Cc2c(C)c3ccc(Oc4ncccn4)cc3oc2=O)c1F [ONC0005131, ro5126766 ch5126766]
Second: Cc1cnc(Nc2ccc(N3CCN(C)CC3)cc2)nc1Nc1cccc(S(=O)(=O)NC(C)(C)C)c1 [ONC0004656, tg101209]
The “% viability” value of the first is higher: 91.03% for the first, 72.92% for the second.

Going from Cn1cc(C(=O)OCC2CCN(CCNS(C)(=O)=O)CC2)c2ccccc21 [ONC0001549, gr113808] to CC[C@]12CCCN3CCc4c(n(c5ccccc45)C(=O)C1)[C@@H]32 [ONC0003441, eburnamonine], the “% viability” value falls from 117.8% to 44.28%.

Compared with CCc1nc(C(N)=O)c(Nc2ccc(N3CCC(N4CCN(C)CC4)CC3)c(OC)c2)nc1NC1CCOCC1 [ONC0002040, gilteritinib], COc1cc2nc(N3CCN(C(=O)C4CCCO4)CC3)nc(N)c2cc1OC (centres unmarked) [ONC0001575, terazosin] is higher in “% viability” value: 63.73% for the first, 104.2% for the second.

Compared with CCC(C)C(N)C1=NC(C(=O)NC(CC(C)C)C(=O)NC(CCC(=O)O)C(=O)NC(C(=O)NCCCCC2NC(=O)C(CC(N)=O)NC(=O)C(CC(=O)O)NC(=O)C(Cc3c[nH]cn3)NC(=O)C(Cc3ccccc3)NC(=O)C(C(C)CC)NC(=O)C(CCCN)NC2=O)C(C)CC)CS1 (stereo not drawn) [ONC0003188, bacitracin] (cyclo(DNK([Ile-Glu-Leu-X1])[Orn]IFH); configuration not given here), CCCCC(=O)OCC(=O)[C@]1(O)Cc2c(O)c3c(c(O)c2[C@@H](O[C@H]2C[C@H](NC(=O)C(F)(F)F)[C@H](O)[C@H](C)O2)C1)C(=O)c1c(OC)cccc1C3=O [ONC0000971, valrubicin] is lower in “% viability” value: 113.7% for the first, 71.95% for the second.

First: CN1CCN(C(=O)c2nc3cc(Cl)ccc3[nH]2)CC1 [ONC0003559, jnj10191584]
Second: CNC(=O)c1nn(C)c2c1C(C)(C)Cc1cnc(Nc3ccc(N4CCN(C)CC4)cc3)nc1-2 [ONC0004754, pha848125]
The “% viability” value of the first is higher: 96.39% for the first, 93.97% for the second.

Going from CC1(C)CN2C(CS/C(=N\C3CCCCC3)NC3CCCCC3)=CSC2=N1 [ONC0001636, it1t] to CN[C@@H](C)C(=O)N[C@H](C(=O)N1CCC[C@H]1C(=O)Nc1snnc1-c1ccccc1)C1CCCCC1 [ONC0004552, gdc0152], the “% viability” value falls from 57.26% to 53.06%.

Compared with O=C(O)C(Cc1ccccc1)NCc1ccc(Cl)cc1 (centres unmarked) [ONC0002816, brl26314], O=C(O)c1ccccc1NCCc1ccccc1 [ONC0003736, tromaril] is lower in “% viability” value: 122.6% for the first, 110.6% for the second.

First: NC1N[C@@](c2cccc(-c3cncnc3)c2)(c2ccnc(C(F)F)c2)c2cccc(F)c21 (some centres unmarked) [ONC0005216, azd3839]
Second: O=S(=O)(Cc1ccccc1)Nc1ccc(-c2ccc3c(cnn3-c3ccc(F)cc3)c2)c(C(F)(F)F)c1 [ONC0001631, gsk9027]
The “% viability” value of the first is higher: 152.4% for the first, 55.93% for the second.

Going from NC(=O)[C@@H]1CC[C@@H]2CN1C(=O)N2OS(=O)(=O)O [ONC0001778, avibactam sodium] to CCC[C@H](N[C@@H](C)C(=O)N1[C@H](C(=O)O)C[C@@H]2CCCC[C@@H]21)C(=O)O [ONC0004286, perindoprilat], the “% viability” value falls from 97.05% to 84.02%.

Compared with O=C(/C=C/c1ccc2ccc(C(F)(F)F)cc2n1)c1ccncc1 [ONC0002207, pfk158], O=C(Cc1ccc(-c2ccccc2)cc1)Nc1ccccn1 [ONC0003751, difenpiramide] is higher in “% viability” value: 67.27% for the first, 141.2% for the second.

Compared with CN1CCN(c2cccc(Nc3nc4c(-c5ccc(S(C)(=O)=O)cc5)cccn4n3)c2)CC1 [ONC0004498, cep33779], Nc1ncnc2c1c(-c1ccc(Oc3ccccc3)cc1)nn2C1CCCC1 [ONC0000019, pci29732] is higher in “% viability” value: 73.37% for the first, 80.57% for the second.

First: Oc1ccc(O)cc1 [ONC0003889, hydroquinone]
Second: O=C1NC(=O)/C(=C/c2ccc(-c3ccc(F)cc3O)o2)S1 [ONC0005022, as252424]
The “% viability” value of the first is lower: 77.99% for the first, 99.61% for the second.

Compared with CN(C)CCC1(c2ccc(Cl)cc2)Cc2ccccc2C(=O)O1 (centres unmarked) [ONC0003131, ac7954], Cc1ccc(/C=N/NC(=O)c2ccccc2Oc2ccccc2)o1 [ONC0000253, pnu74654] is lower in “% viability” value: 76.48% for the first, 69.62% for the second.

First: Nc1ccc(S(=O)(=O)Nc2ccc(Cl)nn2)cc1 [ONC0000623, sulfachlorpyridazine]
Second: NS(=O)(=O)c1cc2c(cc1Cl)N=C(CSCc1ccccc1)NS2(=O)=O [ONC0003290, benzthiazide]
The “% viability” value of the first is higher: 114.6% for the first, 56.37% for the second.

First: CC(=O)NC(C(=O)O)C(C)(C)SN=O (centres unmarked) [ONC0003845, snap]
Second: CC(=O)[C@H]1CC[C@H]2[C@@H]3CCC4=CC(=O)CC[C@]4(C)[C@H]3[C@H](O)C[C@]12C [ONC0005298, stetaderm]
The “% viability” value of the first is lower: 60.59% for the first, 80.33% for the second.

First: Cc1cc2nc3ccc(N(C)C)cc3[s+]c2cc1N [ONC0005325, tolonium chloride]
Second: CCCn1c(=O)c2[nH]c(-c3ccccc3)nc2n(CCC)c1=O [ONC0003016, 13dipropyl8phenylxanthine]
The “% viability” value of the first is lower: 64.78% for the first, 124.5% for the second.

First: CC[C@@H](c1ccc(F)c(F)c1)n1c(C(=O)OC)c(-c2ccno2)[nH]c1=S [ONC0002701, jnj27141491]
Second: CC(C)CCN1c2nc(Nc3cc(F)c(O)c(F)c3)ncc2N(C)C(=O)C1C (centres unmarked) [ONC0004496, bid1870]
The “% viability” value of the first is higher: 54.51% for the first, 46.32% for the second.

Compared with O=C(NC1Cc2ccccc2N(C[C@@H](O)CO)C1=O)c1cc2cc(Cl)sc2[nH]1 (some centres unmarked) [ONC0002471, gpi688], O=C1C(CC[S+]([O-])c2ccccc2)C(=O)N(c2ccccc2)N1c1ccccc1 (centres unmarked) [ONC0000462, sulfinpyrazone] is higher in “% viability” value: 65.21% for the first, 72.77% for the second.
